Sequences of proteins named here, by UniProt entry; tags and fusion partners are left off. A change or cut given only in a name is not applied to a line headed by its entry.
UniProt Q01638: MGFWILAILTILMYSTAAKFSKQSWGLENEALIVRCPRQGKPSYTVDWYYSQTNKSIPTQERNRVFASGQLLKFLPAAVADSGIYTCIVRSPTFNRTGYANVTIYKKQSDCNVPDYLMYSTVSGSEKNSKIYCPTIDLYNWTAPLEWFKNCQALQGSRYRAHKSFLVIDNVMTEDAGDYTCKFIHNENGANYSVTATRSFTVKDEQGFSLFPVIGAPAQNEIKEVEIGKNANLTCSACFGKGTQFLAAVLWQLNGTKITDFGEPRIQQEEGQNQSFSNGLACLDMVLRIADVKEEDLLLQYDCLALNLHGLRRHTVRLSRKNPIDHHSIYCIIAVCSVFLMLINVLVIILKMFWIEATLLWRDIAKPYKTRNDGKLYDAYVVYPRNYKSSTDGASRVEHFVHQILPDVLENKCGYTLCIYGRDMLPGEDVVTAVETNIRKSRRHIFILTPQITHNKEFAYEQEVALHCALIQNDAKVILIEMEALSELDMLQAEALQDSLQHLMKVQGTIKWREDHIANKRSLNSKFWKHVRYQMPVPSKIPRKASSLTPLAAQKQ

Screen size: about 78,000 compounds; about 1,800 (2.3%) were called active. Inconclusive results, whose numbers are uncertain, are shown with a selection of clear calls. Rule as the data show it: active = inhibition above about 30%; inconclusive = mostly about 10% to 28%; inactive = weaker than that.
These molecules were tested against Interleukin-1 receptor-like 1 (Homo sapiens) (UniProt Q01638) (assay: blocks human ST2 binding to IL-33, primary screen, biochemical, AlphaLISA (AID 1259354)). Conditions: AlphaLISA ST2-Fc/biotin-IL-33 interaction, 1 h; at 17 µM, stronger effect = higher value.
`O=C(CCN1C(=O)c2ccccc2C1=O)N1CCCCCC1` was tested, and the inhibition was “inactive”.
In the case of `O=C(c1coc(CN2CCN(c3ccccc3F)CC2)n1)N1CC=CC1`, the inhibition is reported as inconclusive: 13%.
For `Cc1ccc(C)c(S(=O)(=O)N=C2C=C(Br)C(=O)c3ccccc32)c1`, the inhibition was active: 34%.
For `CC1=C(C(=O)OC(C)C(C)(C)C)C(c2cccc(Br)c2)NC(=O)N1` (configuration not stated), the inhibition was “inactive”.
In the case of `O=C(NC1CCCc2ccccc21)C(Cc1ccccc1)NS(=O)(=O)c1cccs1` (configuration not stated), the inhibition is reported as inconclusive: 17%.
With `CC(C)=CC(=O)OC1c2c(ccc3ccc(=O)oc23)OC(C)(C)C1OC(=O)C=C(C)C` (configuration not stated) the inhibition was “inactive”.
With `CCN1C(=O)c2cccc3c(S(=O)(=O)Nc4ccccc4)ccc1c23` the inhibition was inconclusive: 18%.
`O=C(Nc1ccc(-c2nc3ncccc3o2)cc1)c1cccc(F)c1` was tested, and the inhibition was inconclusive: 29%.
For `CC(C)c1ccc(C2N(c3nccs3)C(=O)C3CCCN32)cc1` (configuration not stated), the inhibition was inconclusive: 21%.
For `Cc1cccc(C2c3[nH]c4ccccc4c3CCN2C(=O)CN2CCCCC2=O)c1` (configuration not stated), the inhibition was “inactive”.
`CN(CCC1CCCCO1)C(=O)c1ccc(CSc2ncn[nH]2)o1` (configuration not stated) was tested, and the inhibition was inconclusive: 24%.
For `CCOC(=O)c1cnc2c(ccc3ccccc32)c1Nc1ccc2c(c1)OCCO2`, the inhibition was “inactive”.
For `COc1ccc(C2CC(c3ccc(Cl)cc3)=NN2S(=O)(=O)c2ccccc2)cc1` (configuration not stated), the inhibition was inconclusive: 18%.
For `CCc1cccc(OCC(=O)Nc2cc(OC)c(OC)cc2C(=O)O)c1`, the inhibition was “inactive”.
In the case of `Clc1ccc(CNCc2cccnc2N2CCN(c3ccccn3)CC2)cc1`, the inhibition is reported as inconclusive: 22%.
`C=C1C(=O)OC[C@@H]1C/C=C(\C)CC1CC(C)C(=O)O1` (some centres not stated) was tested, and the inhibition was “inactive”.
`Cc1ccc(N2CC(NC(=O)CCc3ccccc3)CC2=O)cc1C` (configuration not stated) was tested, and the inhibition was inconclusive: 13%.
For `NC(=O)C1CCN(C2CC(=O)N(c3ccccc3[N+](=O)[O-])C2=O)CC1` (configuration not stated), the inhibition was inconclusive: 11%.
`CC(c1ccccc1)N1C(=O)CCC1(C)C(=O)NC1CCCCCCC1` (configuration not stated) was tested, and the inhibition was “inactive”.
With `C=CCc1cc(Cl)ccc1OCCOCCn1ccnc1` the inhibition was inconclusive: 10%.
`CC(O)=Cc1nc2ccccc2nc1C=C(C)O` was tested, and the inhibition was active: 38%.
In the case of `CC(C)C(=O)Nc1cc2c(cc1C(=O)c1ccccc1Br)OCCO2`, the inhibition is reported as inconclusive: 10%.
With `NC(=O)CN1CCCC(C(=O)NCCCc2ccccc2O)C1` (configuration not stated) the inhibition was inconclusive: 22%.
With `COc1ccccc1C(=O)N1CCC2(CCCN(CC3CCC3)C2=O)C1` (configuration not stated) the inhibition was “inactive”.
In the case of `COc1ccc(N=C2NC(=O)/C(=C\c3ccc(N(C)C)cc3)S2)cc1`, the inhibition is reported as inconclusive: 29%.
In the case of `CS(=O)(=O)c1ccc2nc(NC(=O)CCN3C(=O)c4ccccc4C3=O)sc2c1`, the inhibition is reported as inconclusive: 12%.
`O=C(Cc1ccc(F)cc1)Nc1c(C(=O)Nc2cccc(F)c2)oc2ccccc12` was tested, and the inhibition was active: 93%.
